Measurements reported in PubChem BioAssay AID1159508 (Drosophila RNAi Screening Center, 2015)

- Assay: 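How silencing genes for RNA-binding proteins changes cellular ATP without other treatment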
- Cell system: Drosophila S2R+ cells
- Reagents: long dsRNA against Drosophila genes
- Time to read-out: 5 days
- Read-out: 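Total ATP per well measured by luciferase luminescence after 5 days, expressed as z-scores for each replicate and as their average across up to three replicates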
- Direction: mean ATP z-score and ATP z-score: higher = more total ATP luminescence
- Rule for the call: In these data the active calls have mean ATP z-score at about -2 or lower, or at about 2 or higher
- Meaning of the calls: active = strong ATP change (up or down); inactive = no strong ATP change
The deposit covers 812 reagents; this is an unselected part. 18 of all reagents (2.2%) count as active. 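Calls include both increased and decreased ATP; roughly one in four reagents has no third replicate value.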 The record does not give: the amount of reagent.

| predicted target | DRSC id | mean ATP z-score | ATP z-score, replicate 1 | ATP z-score, replicate 2 | ATP z-score, replicate 3 | Outcome |
| --- | --- | --- | --- | --- | --- | --- |
| Irp-1B (Iron regulatory protein 1B) | DRSC16720 | 1.13 | 0.894 | 0.968 | 1.32 | inactive |
| Irp-1B (Iron regulatory protein 1B) | DRSC24261 | -0.821 | -1.11 | -0.721 | -0.476 | inactive |
| hfp (half pint) | DRSC25143 | -1.93 | -2.01 | -1.92 | -1.48 | inactive |
| hfp (half pint) | DRSC31973 | -1.1 | -1.12 | -1.07 | -0.888 | inactive |
| Slu7 | DRSC23582 | 0.732 | 0.534 | 0.835 | – | inactive |
| Slu7 | DRSC31779 | -0.269 | -0.71 | -0.653 | 0.607 | inactive |
| CG42458 | DRSC26691 | -1.59 | -1.6 | -1.54 | -1.33 | inactive |
| CG42458 | DRSC29831 | -0.544 | -1.08 | -0.651 | 0.208 | inactive |
| CG11726 | DRSC09858 | -0.432 | -0.501 | -0.481 | -0.231 | inactive |
| CG11726 | DRSC42687 | 0.445 | 0.0695 | 0.479 | 0.701 | inactive |
| CG3294 | DRSC00590 | -0.0393 | -0.387 | -0.13 | 0.406 | inactive |
| CG3294 | DRSC26228 | -1.02 | -1.41 | -1.13 | -0.343 | inactive |
| CG4806 | DRSC04491 | -0.452 | -0.665 | -0.181 | – | inactive |
| CG4806 | DRSC42720 | -0.0629 | -0.441 | -0.0644 | 0.329 | inactive |
| sm (smooth) | DRSC07686 | -0.617 | -0.747 | -0.652 | -0.333 | inactive |
| sm (smooth) | DRSC40491 | 1.32 | 0.861 | 0.991 | 1.84 | inactive |
| CstF64 (Cleavage stimulation factor 64 kD subunit) | DRSC29486 | 1.58 | 0.499 | 1.85 | 2.08 | inactive |
| CstF64 (Cleavage stimulation factor 64 kD subunit) | DRSC35659 | 1.32 | 0.849 | 1.19 | 1.65 | inactive |
| CG2931 | DRSC12324 | 0.245 | -0.126 | 0.19 | 0.624 | inactive |
| CG2931 | DRSC42691 | 0.668 | 0.0933 | 0.647 | 1.14 | inactive |
| Rrp5 (Ribosomal RNA Processing 5) | DRSC15862 | 0.118 | 0.057 | 0.164 | – | inactive |
| Rrp5 (Ribosomal RNA Processing 5) | DRSC29039 | 0.0706 | -0.313 | 0.445 | – | inactive |
| spoon (spoonbill) | DRSC18299 | 0.128 | -0.57 | 0.0735 | 0.855 | inactive |
| spoon (spoonbill) | DRSC24520 | -0.696 | -0.86 | -0.612 | -0.482 | inactive |
| dbe (dribble) | DRSC00811 | -1.04 | -0.994 | -0.97 | -0.968 | inactive |
| dbe (dribble) | DRSC42645 | -0.405 | -0.473 | -0.453 | -0.211 | inactive |

The list goes on, starting with the last 2 of the part before.
| predicted target | DRSC id | mean ATP z-score | ATP z-score, replicate 1 | ATP z-score, replicate 2 | ATP z-score, replicate 3 | Outcome |
| --- | --- | --- | --- | --- | --- | --- |
| dbe (dribble) | DRSC00811 | -1.04 | -0.994 | -0.97 | -0.968 | inactive |
| dbe (dribble) | DRSC42645 | -0.405 | -0.473 | -0.453 | -0.211 | inactive |
| CG4119 | DRSC27945 | 1.51 | 0.717 | 2.11 | – | inactive |
| CG4119 | DRSC35318 | 0.601 | -0.159 | 0.636 | 1.21 | inactive |
| Rbfox1 (RNA-binding Fox protein 1) | DRSC22992 | 0.55 | 0.0976 | 0.272 | 1.18 | inactive |
| Rbfox1 (RNA-binding Fox protein 1) | DRSC25775 | 0.558 | 0.394 | 0.65 | – | inactive |
| Dbp80 (Dead box protein 80) | DRSC22034 | 0.0135 | -0.81 | 0.193 | 0.655 | inactive |
| Dbp80 (Dead box protein 80) | DRSC36361 | 0.0302 | -0.429 | -0.0925 | 0.606 | inactive |
| eIF3e (eukaryotic translation initiation factor 3 subunit e) | DRSC11199 | 0.792 | -0.0196 | 0.971 | 1.27 | inactive |
| eIF3e (eukaryotic translation initiation factor 3 subunit e) | DRSC31327 | 0.366 | 0.124 | 0.45 | 0.453 | inactive |
| qkr54B (quaking related 54B) | DRSC07670 | 0.232 | -0.77 | -0.287 | 1.71 | inactive |
| qkr54B (quaking related 54B) | DRSC24863 | -1.14 | -1.25 | -1 | -0.954 | inactive |
| Cnot4 (CCR4-NOT transcription complex subunit 4) | DRSC02830 | -0.545 | -0.742 | -0.557 | -0.231 | inactive |
| Cnot4 (CCR4-NOT transcription complex subunit 4) | DRSC02831 | 0.00372 | -0.0317 | 0.0387 | – | inactive |
| qkr58E-1 (quaking related 58E-1) | DRSC23841 | 0.711 | 0.356 | 0.976 | – | inactive |
| qkr58E-1 (quaking related 58E-1) | DRSC40911 | -0.0468 | -0.288 | -0.0404 | 0.197 | inactive |
| eIF3g1 (eukaryotic translation initiation factor 3 subunit g1) | DRSC29282 | 1.46 | 0.605 | 0.781 | 2.71 | inactive |
| eIF3g1 (eukaryotic translation initiation factor 3 subunit g1) | DRSC32087 | 0.142 | -0.123 | -0.122 | 0.645 | inactive |
| CG6937 | DRSC23708 | -0.45 | -0.546 | -0.436 | -0.282 | inactive |
| CG6937 | DRSC32426 | 0.313 | -0.386 | 0.172 | 1.09 | inactive |
| Polr2G (RNA polymerase II subunit G) | DRSC16068 | 0.868 | 0.513 | 0.672 | 1.25 | inactive |
| Polr2G (RNA polymerase II subunit G) | DRSC31810 | 1.13 | 0.404 | 0.646 | 2.11 | inactive |
| CG33158 | DRSC09708 | -0.361 | -1.18 | -0.0301 | 0.192 | inactive |
| CG33158 | DRSC10438 | -0.347 | -0.458 | -0.301 | -0.217 | inactive |
| CG14506 | DRSC14858 | 0.638 | 0.357 | 0.608 | 0.824 | inactive |
| CG14506 | DRSC42706 | -0.446 | -0.651 | -0.369 | -0.232 | inactive |
| me31B (maternal expression at 31B) | DRSC03569 | 0.451 | 0.293 | 0.391 | 0.581 | inactive |
| me31B (maternal expression at 31B) | DRSC38084 | 0.883 | 0.233 | 0.664 | 1.58 | inactive |
| CG7907 | DRSC26041 | 0.376 | 0.305 | 0.339 | 0.412 | inactive |
| CG7907 | DRSC32963 | 1.29 | 1.09 | 1.18 | 1.37 | inactive |
| Hen1 (Hen1 methyltransferase) | DRSC26993 | -0.37 | -0.477 | -0.216 | – | inactive |
| Hen1 (Hen1 methyltransferase) | DRSC33800 | 0.119 | -0.295 | 0.174 | 0.456 | inactive |
| SC35 (SR family splicing factor SC35) | DRSC25427 | -0.258 | -0.262 | -0.22 | – | inactive |
| SC35 (SR family splicing factor SC35) | DRSC39081 | 0.564 | -0.0828 | 0.348 | 1.32 | inactive |
| stc (shuttle craft) | DRSC03620 | -0.464 | -0.513 | -0.435 | -0.355 | inactive |
| stc (shuttle craft) | DRSC40850 | -0.71 | -0.76 | -0.622 | -0.61 | inactive |
| CG10341 | DRSC02040 | 0.296 | -0.134 | 0.689 | – | inactive |
| CG10341 | DRSC42669 | -1.14 | -1.41 | -0.899 | -0.892 | inactive |
| CG4896 | DRSC00671 | 0.0258 | -0.718 | -0.316 | 1.11 | inactive |
| CG4896 | DRSC24570 | -0.194 | -0.382 | -0.277 | 0.113 | inactive |
| scaf6 (SR-related CTD associated factor 6) | DRSC10075 | -0.189 | -0.384 | -0.246 | 0.099 | inactive |
| scaf6 (SR-related CTD associated factor 6) | DRSC34298 | 0.267 | -0.0444 | 0.545 | – | inactive |
| vas (retired record) | DRSC22007 | 0.448 | 0.237 | 0.601 | – | inactive |
| vas (retired record) | DRSC40771 | 0.0583 | -0.128 | -0.0527 | 0.345 | inactive |
| eRF1 (eukaryotic translation release factor 1) | DRSC27974 | 1.56 | 1.39 | 1.53 | – | inactive |
| eRF1 (eukaryotic translation release factor 1) | DRSC32121 | 0.192 | -0.253 | 0.334 | 0.458 | inactive |
| Cpsf100 (Cleavage and polyadenylation specificity factor 100) | DRSC14146 | 1.71 | 1 | 1.47 | 2.32 | inactive |
| Cpsf100 (Cleavage and polyadenylation specificity factor 100) | DRSC34503 | 1.6 | 0.739 | 1.63 | 2.12 | inactive |
| CG12288 | DRSC02155 | -0.215 | -0.472 | -0.153 | 0.0197 | inactive |
| CG12288 | DRSC42667 | -0.146 | -1.02 | -0.811 | 1.42 | inactive |
| Adat1 (Adenosine deaminase, tRNA-specific 1) | DRSC03479 | 0.463 | 0.388 | 0.479 | – | inactive |
| Adat1 (Adenosine deaminase, tRNA-specific 1) | DRSC27220 | -0.744 | -0.794 | -0.689 | -0.607 | inactive |
